PubChem BioAssay AID1259308 – NCATS, 2017
Test: 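Candidate targets for better recombinant protein yield in mammalian cells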 (primary screen). Cell system: human HEK293 embryonic kidney cells stably expressing firefly luciferase (HEK-CMV-Luc2-Hygro). Reagent: single siRNA against human genes, 0.8 pmol siRNA per well. Duration: 72 h. Measured: 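Luciferase light (ONE-Glo) measured on one replicate plate set and viability (CellTiter-Glo) on the other, scaled to a negative control siRNA, with robust z-scores and luciferase per cell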. Reading the numbers: total luciferase, z-score and total luciferase, % of control: higher = more reporter protein produced; luciferase per cell, z-score: higher = more reporter output per viable cell; viable cells, % of control: higher = more viable cells. Active means: 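An siRNA counts as active if its total luciferase robust z-score exceeds 3; genes with two or more such siRNAs out of three were retested with fresh siRNAs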. Meaning of the calls: active = raised luciferase; inactive = no rise.
The deposit covers about 59,000 reagents; this is an unselected part. About 1,510 of all reagents (2.6%) count as active. 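Calls use total luciferase alone and ignore viability, so some active siRNAs may act by altering cell number.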

gene symbol	PubChem SID	total luciferase, z-score	total luciferase, % of control	luciferase per cell, z-score	viable cells, % of control	outcome
SLC68A1	SID160749596	1.41	110	1.07	92.6	inactive
SLC68A1	SID160749597	2.68	135	1.98	89.8	inactive
SLC68A1	SID160749598	3.02	142	2.91	73.8	active
LINC01249	SID160734268	0.906	99.9	0.52	97.3	inactive
LINC01249	SID160771373	0.643	94.7	0.523	92.2	inactive
LINC01249	SID160771374	0.225	86.4	0.308	89	inactive
FNIP1	SID160754667	0.0336	82.6	0.804	74.6	inactive
FNIP1	SID160754668	-0.4	73.9	-0.44	92.7	inactive
FNIP1	SID160754669	-1.22	57.5	-1.57	97.2	inactive
ATP1B4	SID160736295	1.77	117	1.25	94.2	inactive
ATP1B4	SID160736296	0.476	91.4	0.42	91.4	inactive
ATP1B4	SID160736298	-1.42	53.6	-1.31	84.5	inactive
RPS3AP49	SID160733323	-0.166	78.6	0.357	79.9	inactive
RPS3AP49	SID160767015	1.88	119	2.46	69.7	inactive
RPS3AP49	SID160767016	-0.233	77.3	-0.468	97.6	inactive
NRXN3	SID160722052	2.64	134	1.46	102	inactive
NRXN3	SID160722053	2.92	140	1.5	105	inactive
NRXN3	SID160722054	-0.742	67.1	-1.01	98	inactive
RPL15P17	SID160771392	2.08	123	1.86	84.4	inactive
RPL15P17	SID160771394	-0.231	77.3	-0.601	101	inactive
RPL15P17	SID160771395	1.46	111	1.69	79.5	inactive
FYRD1	SID160732044	-0.616	69.6	-0.886	98.3	inactive
FYRD1	SID160752883	-0.00283	81.8	0.0517	90.2	inactive
FYRD1	SID160752884	-1.14	59.2	-1.62	101	inactive
WDR55	SID160742322	2.08	123	1.07	104	inactive
WDR55	SID160742323	-1.57	50.6	-1.95	94.4	inactive
WDR55	SID160742324	0.162	85.1	-0.431	107	inactive
KRT14	SID160776412	-0.362	74.7	-0.398	92.7	inactive
KRT14	SID160776413	-0.959	62.8	-1.5	104	inactive
KRT14	SID160776414	-0.821	65.6	-0.0101	73.5	inactive
ZNF594	SID160752454	1.89	120	2.42	70.6	inactive
ZNF594	SID160752455	-0.278	76.4	-0.678	102	inactive
ZNF594	SID160752456	-0.437	73.2	-0.852	102	inactive
RPLP2P1	SID160725463	0.385	89.5	0.256	93.5	inactive
RPLP2P1	SID160725464	0.487	91.6	0.401	92.1	inactive
RPLP2P1	SID160733440	4.58	173	2.19	109	active

Records listed so far whose gene name begins with L or l:
gene symbol	PubChem SID	total luciferase, z-score	total luciferase, % of control	luciferase per cell, z-score	viable cells, % of control	outcome
LINC01249	SID160734268	0.906	99.9	0.52	97.3	inactive
LINC01249	SID160771373	0.643	94.7	0.523	92.2	inactive
LINC01249	SID160771374	0.225	86.4	0.308	89	inactive

The list goes on.
gene symbol	PubChem SID	total luciferase, z-score	total luciferase, % of control	luciferase per cell, z-score	viable cells, % of control	outcome
SAP30BP	SID160739098	-0.197	78	-0.189	91.6	inactive
SAP30BP	SID160739099	0.0491	82.9	1.04	70.5	inactive
SAP30BP	SID160739101	3.48	151	3.43	68.5	active
RUNX1	SID160737076	-0.362	74.7	1.26	59.8	inactive
RUNX1	SID160737087	-0.88	64.4	-1.11	96.4	inactive
RUNX1	SID160737098	-2.28	36.5	-2.9	87.5	inactive
CENPN	SID160744488	-2.07	40.8	-1.85	74.1	inactive
CENPN	SID160744489	1.48	111	0.863	99.2	inactive
CENPN	SID160744491	-0.0467	81	1.48	61.3	inactive
TMEM231	SID160748936	0.821	98.2	0.498	96.3	inactive
TMEM231	SID160748937	-0.242	77.1	-0.0626	87.6	inactive
TMEM231	SID160748938	0.614	94.1	0.148	101	inactive
MRPS9	SID160748172	1.03	102	1.04	87	inactive
MRPS9	SID160748173	0.353	88.9	-0.552	115	inactive
MRPS9	SID160748174	-0.157	78.8	0.136	84.9	inactive
STX4	SID160717505	-0.0236	81.4	-0.181	95.4	inactive
STX4	SID160717506	0.184	85.5	0.375	86.6	inactive
STX4	SID160717507	0.355	88.9	-0.0176	99.8	inactive
TRPM3	SID160731940	-1.43	53.5	-1.62	91.8	inactive
TRPM3	SID160750004	-0.396	74	-0.912	105	inactive
TRPM3	SID160750005	2.73	136	4.53	46.1	inactive
